Results: the supplement of paper PMC8728848
The list shows a part of the results.

Experiments:
Assay in all cases: glycan array binding signal (z-score within array); higher = stronger binding
Conditions in all cases: glycan notation: IUPAC condensed, linker removed
Gal3S(b1-4)Glc = target: Gal3S(b1-4)Glc
Method in brief: (§1)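 The binding signal is a Z-score computed within each array. Data were drawn from 3228 arrays in the Consortium for Functional Glycomics database, restricted to those with a known protein sequence. Scores were averaged over arrays of the same protein sequence at different concentrations or buffers, and over linkers, and negative values can be taken as non-binding.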

Gal3S(b1-4)Glc6S = target: Gal3S(b1-4)Glc6S
Method in brief: as §1

Gal3S(b1-4)GlcNAc = target: Gal3S(b1-4)GlcNAc
Method in brief: as §1

[1] = target: Gal3S(b1-4)[Fuc(a1-3)]Glc6S
Method in brief: as §1

[2] = target: Gal3S(b1-4)[Fuc(a1-3)]GlcNAc
Method in brief: as §1

[3] = target: Gal3S(b1-4)[Fuc(a1-3)]GlcNAc6S
Method in brief: as §1

Gal3S4S(b1-4)GlcNAc = target: Gal3S4S(b1-4)GlcNAc
Method in brief: as §1

Gal3S6S(b1-4)GlcNAc = target: Gal3S6S(b1-4)GlcNAc
Method in brief: as §1

Gal3S6S(b1-4)GlcNAc6S = target: Gal3S6S(b1-4)GlcNAc6S
Method in brief: as §1

Gal4S(b1-4)GlcNAc = target: Gal4S(b1-4)GlcNAc
Method in brief: as §1

Gal4S6S(b1-4)GlcNAc = target: Gal4S6S(b1-4)GlcNAc
Method in brief: as §1

Gal6P(b1-4)GlcNAc = target: Gal6P(b1-4)GlcNAc
Method in brief: as §1

Gal6S(b1-3)GlcNAc = target: Gal6S(b1-3)GlcNAc
Method in brief: as §1

Gal6S(b1-3)GlcNAc6S = target: Gal6S(b1-3)GlcNAc6S
Method in brief: as §1

Gal6S(b1-4)Glc = target: Gal6S(b1-4)Glc
Method in brief: as §1

Gal6S(b1-4)Glc6S = target: Gal6S(b1-4)Glc6S
Method in brief: as §1

Gal6S(b1-4)GlcNAc = target: Gal6S(b1-4)GlcNAc
Method in brief: as §1

Gal6S(b1-4)GlcNAc6S = target: Gal6S(b1-4)GlcNAc6S
Method in brief: as §1

GalNAc(a1-3)Gal = target: GalNAc(a1-3)Gal
Method in brief: as §1

GalNAc(a1-3)GalNAc = target: GalNAc(a1-3)GalNAc
Method in brief: as §1

[4] = target: GalNAc(a1-3)GalNAc(b1-3)Gal(a1-4)Gal(b1-4)Glc
Method in brief: as §1

[5] = target: GalNAc(a1-3)GalNAc(b1-3)Gal(a1-4)Gal(b1-4)GlcNAc
Method in brief: as §1

GalNAc(b1-3)Gal = target: GalNAc(b1-3)Gal
Method in brief: as §1

[6] = target: GalNAc(b1-3)Gal(a1-4)Gal(b1-4)GlcNAc
Method in brief: as §1

[7] = target: GalNAc(b1-3)Gal(a1-4)Gal(b1-4)GlcNAc(b1-3)Gal(b1-4)Glc
Method in brief: as §1

[8] = target: GalNAc(b1-3)Gal(a1-6)Gal(b1-4)Glc
Method in brief: as §1

GalNAc(b1-3)GalNAc = target: GalNAc(b1-3)GalNAc
Method in brief: as §1

GalNAc(b1-3)GlcNAc = target: GalNAc(b1-3)GlcNAc
Method in brief: as §1

GalNAc(b1-4)Gal(b1-4)Glc = target: GalNAc(b1-4)Gal(b1-4)Glc
Method in brief: as §1

GalNAc(b1-4)GlcNAc = target: GalNAc(b1-4)GlcNAc
Method in brief: as §1

[9] = target: GalNAc(b1-4)GlcNAc(b1-2)Man
Method in brief: as §1

[10] = target: GalNAc(b1-4)GlcNAc(b1-2)Man(a1-3)[GalNAc(b1-4)GlcNAc(b1-2)Man(a1-6)]Man(b1-4)GlcNAc(b1-4)GlcNAc
Method in brief: as §1

[11] = target: GalNAc(b1-4)GlcNAc(b1-3)GalNAc(b1-4)GlcNAc
Method in brief: as §1

GalNAc(b1-4)GlcNAc6S = target: GalNAc(b1-4)GlcNAc6S
Method in brief: as §1

GalNAc(b1-6)GalNAc = target: GalNAc(b1-6)GalNAc
Method in brief: as §1

GalNAc3S(b1-4)GlcNAc = target: GalNAc3S(b1-4)GlcNAc
Method in brief: as §1

GalNAc3S(b1-4)GlcNAc3S = target: GalNAc3S(b1-4)GlcNAc3S
Method in brief: as §1

B1: PX14404-bvu-534-26-534 (Bacteroides vulgatus) (protein)
chain: EDPRGKLTPENFFSTQDELNMSIYALYQKVNLSQVYTNMQLPQWQGDDITTNPGSNKQPAAEMDKFAAANNNKGVKDAWNMHYAIVKAANLIIQGASKTPTTQDEINIALGQAKFWRAYAYFTLVRLWGPLPMNLDNVNDDYTKPLSPVEEVYGHIVQDLTEAEAVLPTGYSGSPRFLNGVNVYVTRQAAKSTLAAVYMAMAGWPMNKTEYYAKAAEKAKEVIEGVNRGEYEYKLDKDYKDVYAMSNNYNNETVLGINYSPFVDWAQDSELTSCNQFESLGGWGDAWGEIRFWKEFPDGPRKDATYDPKIRLKDGTLVDWWELKEDGTPVVPEHHPMFSIFSVNWDPASKVNTSAPYDYTKPASQNMCNDHRHRIIRYSEVLLWYAEAKARTGQTDELAFKCLNDVRERAGLEPLTGLSADDLAEAAYKEHGWEVAGYWVALVTRRADQFRMNRLKDTFKERAENTAVEVADGILVKESVEYTNRTWSDNLMYLPYPDMDSQKNPNLVR
Gal3S(b1-4)Glc
  glycan array binding signal (z-score): 1.42
Gal3S(b1-4)Glc6S
  glycan array binding signal (z-score): 0.715
Gal3S(b1-4)GlcNAc
  glycan array binding signal (z-score): 0.66
[1]
  glycan array binding signal (z-score): 1.84
[2]
  glycan array binding signal (z-score): 0.687
[3]
  glycan array binding signal (z-score): 1.45
Gal3S4S(b1-4)GlcNAc
  glycan array binding signal (z-score): 1.5
Gal3S6S(b1-4)GlcNAc
  glycan array binding signal (z-score): 0.039
Gal3S6S(b1-4)GlcNAc6S
  glycan array binding signal (z-score): 1.17
Gal4S(b1-4)GlcNAc
  glycan array binding signal (z-score): -0.365
Gal4S6S(b1-4)GlcNAc
  glycan array binding signal (z-score): -0.083
Gal6P(b1-4)GlcNAc
  glycan array binding signal (z-score): -1.18
Gal6S(b1-3)GlcNAc
  glycan array binding signal (z-score): 0.074
Gal6S(b1-3)GlcNAc6S
  glycan array binding signal (z-score): -1.01
Gal6S(b1-4)Glc
  glycan array binding signal (z-score): 1.21
Gal6S(b1-4)Glc6S
  glycan array binding signal (z-score): 3.4
Gal6S(b1-4)GlcNAc
  glycan array binding signal (z-score): 0.072
Gal6S(b1-4)GlcNAc6S
  glycan array binding signal (z-score): 0.237
GalNAc(a1-3)Gal
  glycan array binding signal (z-score): 0.178
GalNAc(a1-3)GalNAc
  glycan array binding signal (z-score): -0.31
[4]
  glycan array binding signal (z-score): -0.736
[5]
  glycan array binding signal (z-score): -0.297
GalNAc(b1-3)Gal
  glycan array binding signal (z-score): 0.268
[6]
  glycan array binding signal (z-score): 0.643
[7]
  glycan array binding signal (z-score): -0.497
[8]
  glycan array binding signal (z-score): -0.641
GalNAc(b1-3)GalNAc
  glycan array binding signal (z-score): -0.228
GalNAc(b1-3)GlcNAc
  glycan array binding signal (z-score): -0.433
GalNAc(b1-4)Gal(b1-4)Glc
  glycan array binding signal (z-score): 1.24
GalNAc(b1-4)GlcNAc
  glycan array binding signal (z-score): -0.29
[9]
  glycan array binding signal (z-score): 1.36
[10]
  glycan array binding signal (z-score): -0.187
[11]
  glycan array binding signal (z-score): 0.187
GalNAc(b1-4)GlcNAc6S
  glycan array binding signal (z-score): 0.556
GalNAc(b1-6)GalNAc
  glycan array binding signal (z-score): -0.868
GalNAc3S(b1-4)GlcNAc
  glycan array binding signal (z-score): -0.93
GalNAc3S(b1-4)GlcNAc3S
  glycan array binding signal (z-score): 0.453
